Data as given in PubChem BioAssay AID1347076 (National Center for Advancing Translational Sciences (NCATS), 2019).
Among all 400,000 compounds or so, about 13,000 (3.2%) were called active. Inconclusive results, whose numbers are uncertain, are shown with a selection of clear calls. The call rests on the fitted dose curve; in most records, active means well fitted cell-killing curve with a large enough effect; inconclusive means small, poorly fitted or top-dose-only effect, or effect the other way; inactive means flat fitted curve, though single readings scatter. Potencies beside an inconclusive call are fits to weak or partial responses and may not hold up.

Assay: qHTS assay for MDR1-selective chemotherapeutics: Primary screen using the drug-selected MDR subline cells KB-V1; further: nearly all actives have a fitted effect of over 60% in size
Details: KB-V1 MDR cells viability, CellTiter-Glo, 72 h; activity change, negative = cytotoxicity: at 46.1 µM (top of the series)
How it was run: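 Drug-selected KB-V1 cells, grown in DMEM lacking phenol red with 10% FBS, receive compound titrations; after three days at 37 degrees C, surviving cell ATP is quantified by CellTiter-Glo luminescence and responses normalized and curve-fitted.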
On the % scale 0 is the no-effect control and ±100 the full control effect; potency means the concentration at half of the fitted maximal effect.

Row | SMILES | Potency | activity change, negative = cytotoxicity
1 | CCNc1nc(Cl)nc(NC2CCCCC2)n1 | inconclusive: 16.4 µM [cytotoxic, partial curve] | 
2 | Cc1ccc(N2CCN(C(=O)c3cnn(-c4ccc(F)cc4F)c3C3CCN(C(=O)OC(C)(C)C)CC3)CC2)c(C)c1 |  | inactive: -0.562%
3 | Cc1nc2cc(C(F)(F)F)ccc2n1C1CCN(CC(=O)N2CCCC2)CC1 | inconclusive: 20.6 µM [cytotoxic, partial curve, poor fit] | 
4 | CCCS(=O)(=O)N1CCN(Cc2ccc([N+](=O)[O-])cc2)CC1 | inconclusive: 20.6 µM [cytotoxic, single point] | 
5 | COc1ccc(-n2cc(C#N)c(=O)n(Cc3ccc(F)cc3)c2=O)cc1 | inconclusive: 20.6 µM [cytotoxic, single point] | 
6 | Cc1ccc(C(=O)Nc2ccc(N3CCOCC3)nc2N2CCOCC2)cc1 | inconclusive: 16.4 µM [cytotoxic, single point] | 
7 | C=CCOc1ccc(C(=O)/C=C2/C(=O)Nc3ccccc32)cc1 |  | inactive: -3.87%
8 | CC(C)(C)NC(=O)CN(C(=O)C(=O)Nc1ccc2c(c1)OCCO2)C(C)(C)C | inconclusive: 16.4 µM [cytotoxic, partial curve, poor fit] | 
9 | CC1=C/C(=N\OS(=O)(=O)c2ccccc2)C(C(C)C)=CC1=O | inconclusive: 20.6 µM [cytotoxic, single point] | 
10 | CC(C)(C)c1nnc2sc(SC/C(O)=C(\C#N)c3nc4ccccc4[nH]3)nn2c1=O | inconclusive: 5.17 µM [rising, partial curve] | 
11 | Cc1ccc(Nc2nc3ccccc3c3nnc(C)n23)c(C)c1 |  | inactive: 9.63%
12 | COC(=O)c1cc(Sc2c(Cl)cccc2Cl)ccn1 | inconclusive: 29.1 µM [cytotoxic, single point] | 
13 | CC[C@H]1C(O)C[C@H]2CCN3C(=O)CCC[C@H]1[C@H]23 (some centres not stated) |  | inactive: 0.0002%
14 | Cc1cc(-c2nnc(SCC(=O)Nc3cccc(F)c3)n2N)n[nH]1 |  | inactive: -3.66%
15 | Cc1noc(C)c1CCC(=O)Nc1c(C(C)C)cccc1C(C)C | active: 14.6 µM | 
16 | O=C(Nc1nc(-c2ccc(Cl)cc2Cl)cs1)c1ccc(OCC2CCCO2)cc1 (configuration not stated) | active: 9.2 µM | 
17 | CCOC(=O)C1=C(CSc2nc3c(cc2C#N)CN(C)CC3)OC(N)=C(C#N)C1c1ccc(F)cc1 (configuration not stated) |  | inactive: -12.7%
18 | COc1ccc(C2=Nc3ccccc3N(C(=O)c3ccc4ncccc4c3)C2C(=O)NC(C)(C)C)cc1 (configuration not stated) | inconclusive: 23.1 µM [cytotoxic, single point] | 
19 | COc1ccc(C2(O)CC3CCC(C2)N3c2nc(C)cc(C)c2C#N)cc1 (configuration not stated) | inconclusive: 23.1 µM [cytotoxic, single point] | 
20 | Nn1c(SCC(=O)Nc2ccc(Oc3ccccc3)cc2)nnc1C1CC1 | inconclusive: 16.4 µM [cytotoxic, single point] | 
21 | O=C1CCN(Cc2ccc([N+](=O)[O-])cc2)CCN1[C@H](CO)c1ccccc1 | inconclusive: 29.1 µM [cytotoxic, single point] | 
22 | Cc1nc2c(OCc3ccc(Cl)cc3)cccn2c1N(C)Cc1cccs1 | inconclusive: 20.6 µM [cytotoxic, single point] | 
23 | CC1=C(C(=O)Nc2cc(C)ccc2C)C(c2cccs2)NC(=S)N1 (configuration not stated) | inconclusive: 16.4 µM [cytotoxic, partial curve] | 

Row | SMILES | Potency | activity change, negative = cytotoxicity
24 | CC(=O)Nc1ccc(C2=NN(c3ccccc3)C(c3ccccc3)C2)cc1 (configuration not stated) | inconclusive: 32.6 µM [cytotoxic, single point] | 
25 | CCC(C)N(c1ccc(/C=C/c2ccnc3ccccc23)cc1)C(C)CC (configuration not stated) |  | inactive: -1.86%
26 | COC(=O)c1ccccc1C(=O)c1cccc2ccccc12 | inconclusive: 29.1 µM [cytotoxic, single point] | 
27 | Cc1cccc(CNC(=O)c2sc(=O)n(Cc3c(C)cccc3C)c2C)c1 | active: 20.6 µM | 
28 | Nn1c(COc2ccc(Cl)cc2)n[nH]c1=S | inconclusive: 6.51 µM [rising, partial curve, poor fit] | 
29 | Cc1ccc(CN(C(=O)C(F)(F)F)C(C(=O)NC2CCCCC2)c2ccco2)cc1 (configuration not stated) | inconclusive: 20.6 µM [cytotoxic, partial curve] | 
30 | O=C(NCCN1C(=O)S/C(=C\c2ccc(OC(F)F)cc2)C1=O)c1cnccn1 | active: 8.2 µM | 
31 | CC(Nc1cc(N2CCN(C(=O)C(C)(C)C)CC2)ccc1[N+](=O)[O-])c1ccccc1 (configuration not stated) | active: 10.3 µM | 
32 | CCn1c(SCc2cccc(C(F)(F)F)c2)nnc1-c1ccco1 | inconclusive: 18.4 µM [cytotoxic, partial curve] | 
33 | O=C(Nc1ccc2c(c1)CCC2)c1ccc(Cl)nc1 | inconclusive: 13 µM [cytotoxic, single point] | 
34 | CC[C@@H](C)[C@H](CNC)NC[C@@H](Cc1cccc2ccccc12)NCCc1cccc(C(F)(F)F)c1 | inconclusive: 25.9 µM [cytotoxic, partial curve, poor fit] | 
35 | COc1ccc(C(CNC(=O)c2cccc(Br)c2)N2CCCC2)cc1 (configuration not stated) | inconclusive: 16.4 µM [cytotoxic, partial curve, poor fit] | 
36 | CCOC(=O)c1sc2nc(CSc3ccccc3Cl)[nH]c(=O)c2c1C | inconclusive: 4.11 µM [cytotoxic, partial curve] | 
37 | CC(O)(c1ccc(F)c(F)c1)c1nc(-c2ccc(F)c(Cl)c2)cs1 (configuration not stated) |  | inactive: 5.95%
38 | O=C(OCC(=O)N1CCN(C(=O)c2ccco2)CC1)c1ccccc1OCc1ccc(Cl)cc1 |  | inactive: 0%
39 | Cc1nnc(SCCn2c(N3CCC(C)CC3)nc3c2c(=O)[nH]c(=O)n3C)s1 | inconclusive: 9.2 µM [cytotoxic, partial curve, poor fit] | 
40 | O=C(CNC(=O)c1ccco1)NCc1nc2ccccc2[nH]1 | inconclusive: 20.6 µM [rising, partial curve] | 
41 | NC(=O)C1CCCN(C(=O)NC2CCCCC2)C1 (configuration not stated) |  | inactive: 0%
42 | CC(C)NC(=O)C1(C)CCCN1Cc1csc2ccccc12 (configuration not stated) |  | inactive: 3.36%
43 | O=C(Nc1sccc1C(=O)NCc1ccco1)c1cccnc1 | inconclusive: 22.4 µM [cytotoxic, single point] | 
44 | O=C(OCc1ccccc1)N1CCC2CC1c1cc(-c3cc4ccccc4o3)ccc12 (configuration not stated) | inconclusive: 29.1 µM [cytotoxic, single point] | 
45 | COc1ccc(OC)c(NC(=O)C(=O)/C=C(\O)c2cc(OC)ccc2OC)c1 | inconclusive: 18.4 µM [cytotoxic, single point] | 
46 | CCOC(=O)CN(Cc1ccccc1)C(C(=O)NC1CCCCC1)c1ccc(OC)cc1 (configuration not stated) | inconclusive: 29.1 µM [cytotoxic, single point] | 

Row | SMILES | Potency | activity change, negative = cytotoxicity
47 | CC(=O)c1cccc(NC(=O)C(CC(C)C)NS(=O)(=O)c2ccc3c(c2)CCN3C(C)=O)c1 (configuration not stated) |  | inactive: -23.8%
48 | COc1ccc(CN(CC(=O)NCCc2ccccc2)C(=O)CCC(=O)Nc2cc(C)ccn2)cc1 | inconclusive: 23.1 µM [cytotoxic, single point] | 
49 | CCOC(=O)N1CCN(C(=O)C[C@@H]2C[C@@]3(C(=O)OC)CCCCC=C3N(Cc3ccccc3)C2=O)CC1 | inconclusive: 5.8 µM [cytotoxic, partial curve] | 
50 | CC1Cc2ccccc2N1C(=O)COC(=O)c1ccc(Br)o1 (configuration not stated) | inconclusive: 13 µM [rising, partial curve, poor fit] | 
51 | O=C(COc1ccc(S(=O)(=O)NCc2ccccc2)cc1Cl)NCC1CCCO1 (configuration not stated) | inconclusive: 16.4 µM [cytotoxic, single point] | 
52 | COc1ccc(CC2S/C(=C(\C#N)C(=O)NCc3ccco3)N(c3ccc(C)cc3)C2=O)cc1 (configuration not stated) | inconclusive: 5.8 µM [cytotoxic, partial curve, poor fit] | 
53 | COc1ccccc1CCNC(=O)C(=O)Nc1cc2c3c(c1)C(C)C(=O)N3CCC2 (configuration not stated) | inconclusive: 4.61 µM [cytotoxic, full curve] | 
54 | COc1ccccc1C(=O)NCCC(=O)Nc1ccc(S(=O)(=O)N2CC(C)CC(C)C2)cc1 (configuration not stated) | inconclusive: 29.1 µM [cytotoxic, single point] | 
55 | CN(C=O)c1cc([N+](=O)[O-])ccc1OCc1ccccc1 | active: 18.4 µM | 
56 | CCC(CC)COC(=O)C1=C(C)NC(=O)NC1c1ccc([N+](=O)[O-])cc1 (configuration not stated) | inconclusive: 13 µM [cytotoxic, partial curve] | 
57 | COc1ccc(Cl)cc1NC(=O)c1ccc2c(c1)CCN2S(C)(=O)=O |  | inactive: -17.1%
58 | CCSC1=C(C#N)C2(CCCCC2)C(C#N)=C(N)N1 | inconclusive: 16.4 µM [cytotoxic, single point] | 
59 | Cc1cccc(NC(=O)C2C3CCCCC32)c1 (configuration not stated) | inconclusive: 3.66 µM [rising, full curve, poor fit] | 
60 | Cc1ccc2oc(C(=O)Nc3cc(C)on3)c(C)c2c1 |  | inactive: 5.84%
61 | Cc1ccc([C@H]2N[C@]3(CCCN(Cc4ccc(C(F)(F)F)cc4)C3=O)[C@H]3C(=O)N(Cc4ccccc4)C(=O)[C@@H]23)cc1 |  | inactive: 3.37%
62 | O=S(=O)(c1ccc(F)cc1)c1nc(-c2ccccc2)oc1N1CCOCC1 | inconclusive: 4.11 µM [cytotoxic, partial curve, poor fit] | 
63 | COc1ccc(CCNC(=O)CN2CCN(c3cccc(C(F)(F)F)c3)CC2)cc1 | inconclusive: 35.5 µM [cytotoxic, single point] | 
64 | CCCCOc1ccc(NC2=NC3(CCCCC3)N=C(N)N2)cc1 |  | inactive: 2.42%
65 | CC(C)CN1C(=O)C(=O)N(CC(=O)NC2CCCc3ccccc32)C1=O (configuration not stated) | inconclusive: 7.31 µM [cytotoxic, partial curve] | 
66 | O=C(CSc1nc(-c2ccco2)cc(C(F)(F)F)n1)Nc1ccc2c(c1)OCO2 | active: 18.4 µM | 
67 | Cc1ccc(S(=O)(=O)N2CCN(C(=O)Cc3ccc(S(=O)(=O)N4CCOCC4)s3)CC2)cc1 |  | inactive: -56.8%

An excerpt from above in order of molecular weight, falling.
Row | SMILES | Potency | activity change, negative = cytotoxicity
67 | Cc1ccc(S(=O)(=O)N2CCN(C(=O)Cc3ccc(S(=O)(=O)N4CCOCC4)s3)CC2)cc1 |  | inactive: -56.8%
54 | COc1ccccc1C(=O)NCCC(=O)Nc1ccc(S(=O)(=O)N2CC(C)CC(C)C2)cc1 (configuration not stated) | inconclusive: 29.1 µM [cytotoxic, single point] | 
53 | COc1ccccc1CCNC(=O)C(=O)Nc1cc2c3c(c1)C(C)C(=O)N3CCC2 (configuration not stated) | inconclusive: 4.61 µM [cytotoxic, full curve] | 
64 | CCCCOc1ccc(NC2=NC3(CCCCC3)N=C(N)N2)cc1 |  | inactive: 2.42%
59 | Cc1cccc(NC(=O)C2C3CCCCC32)c1 (configuration not stated) | inconclusive: 3.66 µM [rising, full curve, poor fit] | 
